No constants are given. Whether binding was seen depends on the method and setting.
T1: NLRP1 CARD (UniProt Q9C000)
T1 sequence: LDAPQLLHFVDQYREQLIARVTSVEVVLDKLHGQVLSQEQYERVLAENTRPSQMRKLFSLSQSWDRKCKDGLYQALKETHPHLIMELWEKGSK

Sequences of proteins named here, by UniProt entry; tags and fusion partners are left off. Residues count along the entry.
UniProt O14727, residues 1-92: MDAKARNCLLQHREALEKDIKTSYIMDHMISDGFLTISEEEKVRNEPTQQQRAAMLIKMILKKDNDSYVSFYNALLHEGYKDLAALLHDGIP
UniProt Q9ULZ3, residues 1-94: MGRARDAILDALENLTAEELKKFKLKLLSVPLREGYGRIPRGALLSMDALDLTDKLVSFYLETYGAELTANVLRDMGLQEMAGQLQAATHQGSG

T2: NLRP1 PYD (UniProt Q9C000)
T2 sequence: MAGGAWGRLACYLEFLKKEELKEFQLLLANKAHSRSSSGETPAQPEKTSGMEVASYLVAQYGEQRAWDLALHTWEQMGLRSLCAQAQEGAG

T3: NLRP10 PYD (UniProt Q86W26)
T3 sequence: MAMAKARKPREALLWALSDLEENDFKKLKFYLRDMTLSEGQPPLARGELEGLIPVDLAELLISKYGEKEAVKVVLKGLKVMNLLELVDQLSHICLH

T4: NLRP11 PYD (UniProt P59045)
T4 sequence: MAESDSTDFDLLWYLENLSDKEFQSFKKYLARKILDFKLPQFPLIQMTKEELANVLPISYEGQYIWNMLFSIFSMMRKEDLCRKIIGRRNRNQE

T5: NLRP12 PYD (UniProt P59046)
T5 sequence: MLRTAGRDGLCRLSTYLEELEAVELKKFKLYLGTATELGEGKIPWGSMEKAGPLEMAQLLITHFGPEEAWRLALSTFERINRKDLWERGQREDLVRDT

T6: NLRP2 PYD (UniProt Q9NX02)
T6 sequence: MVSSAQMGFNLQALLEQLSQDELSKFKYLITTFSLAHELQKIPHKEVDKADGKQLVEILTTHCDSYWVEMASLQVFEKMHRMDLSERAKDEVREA

T7: NLRP7 PYD (UniProt Q8WX94)
T7 sequence: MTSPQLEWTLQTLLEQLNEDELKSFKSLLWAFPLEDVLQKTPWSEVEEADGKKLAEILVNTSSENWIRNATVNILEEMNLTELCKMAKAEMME


Tests used:
Test in all cases: two-hybrid; … GAL4 Two-Hybrid System 3, S. cerevisiae AH109 co-transformed with pGBKT7 and pGADT7 fusions; growth on SD/-Ade/-His/-Leu/-Trp, 4 days at 30°C; “each against all” screen (26×26) and later tests with refined constructs
NLRP1 CARD = target: T1, NLRP1 CARD
NLRP1 PYD = target: T2, NLRP1 PYD
NLRP10 PYD = target: T3, NLRP10 PYD
NLRP11 PYD = target: T4, NLRP11 PYD
NLRP12 PYD = target: T5, NLRP12 PYD
NLRP2 PYD = target: T6, NLRP2 PYD
NLRP7 PYD = target: T7, NLRP7 PYD
APAF1 CARD = APAF1 CARD (UniProt O14727)
NLRC5 CARD = NLRC5 CARD (UniProt Q86WI3)

| binding (NLRP1 CARD) | binding (NLRP1 PYD) | binding (NLRP10 PYD) | binding (NLRP11 PYD) | binding (NLRP12 PYD) | binding (NLRP2 PYD) | binding (NLRP7 PYD) | binding (APAF1 CARD) | binding (NLRC5 CARD) | Molecule |
| --- | --- | --- | --- | --- | --- | --- | --- | --- | --- |
| no binding | no binding | no binding | no binding | no binding | no binding | no binding | – | – | ASC PYD (from UniProt Q9ULZ3 1-94) (domain or fragment) |
| no binding | no binding | – | – | – | – | – | no binding | – | APAF1 CARD (from UniProt O14727 1-92) (domain or fragment) |
| – | – | – | – | – | – | – | – | no binding | NLRC5 CARD (domain or fragment, UniProt Q86WI3 1-98) MDPVGLQLGNKNLWSCLVRLLTKDPEWLNAKMKFFLPNTDLDSRNETLDPEQRVILQLNKLHVQGSDTWQSFIHCVCMQLEVPLDLEVLLLSTFGYDD |
